The results in this text go back to patent US20100015130A1.

Chains of the proteins cited; added tags and fusions are not shown.
UniProt Q9WV60: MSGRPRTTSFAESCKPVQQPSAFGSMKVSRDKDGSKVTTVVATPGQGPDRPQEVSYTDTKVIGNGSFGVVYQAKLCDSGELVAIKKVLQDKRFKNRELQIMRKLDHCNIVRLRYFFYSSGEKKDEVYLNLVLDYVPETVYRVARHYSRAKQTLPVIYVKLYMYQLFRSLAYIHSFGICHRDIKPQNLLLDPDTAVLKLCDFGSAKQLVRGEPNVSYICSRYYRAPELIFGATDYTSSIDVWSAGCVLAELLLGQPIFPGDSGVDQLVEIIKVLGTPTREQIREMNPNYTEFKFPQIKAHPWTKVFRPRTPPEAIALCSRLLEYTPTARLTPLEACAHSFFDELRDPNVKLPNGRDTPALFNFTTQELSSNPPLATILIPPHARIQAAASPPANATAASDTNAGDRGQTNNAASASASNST

These are yes or no findings as the source states them, for the method shown. In cells and extracts the contact can be indirect. Some binding calls cover weakened binding; strength is not graded here.

Experiment [1] has as its target endogenous GSK3β in mouse embryonic brain lysate (mouse) (UniProt Q9WV60). Put plainly: co-immunoprecipitation from embryonic brain lysate.
The target is the same in experiment [2]. Put plainly: co-immunoprecipitation with anti-DISC1, immunoblot with anti-GSK3β, FIG. 4e. A general note: In western blotting, separated proteins are transferred to a membrane and probed.

B1: mouse DISC1 (Disrupted In Schizophrenia 1), endogenous in mouse embryonic brain lysate (protein, UniProt Q811T9 1-852, looked up)
chain: MQGGGPRGAPIHSPSHGADSGHGLPPAVAPQRRRLTRRPGYMRSTAGSGIGFLSPAVGMPHPSSAGLTGQQSQHSQSKAGQCGLDPGSHCQASLVGKPFLKSSLVPAVASEGHLHPAQRSMRKRPVHFAVHSKNDSRQSERLTGSFKPGDSGFWQELLSSDSFKSLAPSLDAPWNKGSRGLKTVKPLASPALNGPADIASLPGFQDTFTSSFSFIQLSLGAAGERGEAEGCLPSREAEPLHQRPQEMAAEASSSDRPHGDPRHLWTFSLHAAPGLADLAQVTRSSSRQSECGTVSSSSSDTGFSSQDASSAGGRGDQGGGWADAHGWHTLLREWEPMLQDYLLSNRRQLEVTSLILKLQKCQEKVVEDGDYDTAETLRQRLEELEQEKGRLSWALPSQQPALRSFLGYLAAQIQVALHGATQRAGSDDPEAPLEGQLRTTAQDSLPASITRRDWLIREKQRLQKEIEALQARMSALEAKEKRLSQELEEQEVLLRWPGCDLMALVAQMSPGQLQEVSKALGETLTSANQAPFQVEPPETLRSLRERTKSLNLAVRELTAQVCSGEKLCSSLRRRLSDLDTRLPALLEAKMLALSGSCFSTAKELTEEIWALSSEREGLEMFLGRLLALSSRNSRRLGIVKEDHLRCRQDLALQDAAHKTRMKANTVKCMEVLEGQLSSCRCPLLGRVWKADLETCQLLMQSLQLQEAGSSPHAEDEEQVHSTGEAAQTAALAVPRTPHPEEEKSPLQVLQEWDTHSALSPHCAAGPWKEDSHIVSAEVGEKCEAIGVKLLHLEDQLLGAMYSHDEALFQSLQGELQTVKETLQAMILQLQPTKEAGEASASYPTAGAQETEA
Consider B1, for which the binding entry in experiment [1] and in experiment [2] was “binds” each time.
